From PubChem BioAssay AID2685 (National Center for Advancing Translational Sciences (NCATS), 2010)
Out of some 320,000 compounds screened, about 2,100 (0.66%) were called active. Inconclusive means that the source gave no clear call. Such entries were picked first, then a sample of the others. Calls come from the whole dose curve; as a rule, active = well fitted inhibition curve with a large enough effect in the signal ratio, with a control signal flat (not every such curve was filed as active); inconclusive = small, poorly fitted or top-dose-only effect, or effect the other way, or a change in a side signal; inactive = flat fitted curve, though single readings scatter; the % refers to the signal ratio. Potencies beside an inconclusive call are fits to weak or partial responses and may not hold up.

Experiment: qHTS Assay for Lipid Storage Modulators in Drosophila S3 Cells
Conditions: BODIPY lipid droplet fluorescence, 18-24 h, cells fed with added oleic acid; lipid storage change, negative = inhibition: at 46.1 µM (top of the series) unless noted
Outline: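 Laser-scanning cytometry quantifies lipid droplet accumulation (500–530 nm total intensity; droplet/cell object ratio) in oleic acid-fed (400 uM added) Drosophila S3 cells treated with a concentration series. 20 uM Triacsin C defined 100% inhibition.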
% is set by controls: 0 for no effect and ±100 for the full control effect; potency is the fitted concentration of half-maximal effect.

SMILES	Potency	lipid storage change, negative = inhibition
CC1C/C(=C/c2ccco2)C(=O)/C(=C/c2ccco2)C1 (configuration not stated)	inconclusive: 32.6 µM [falling, partial curve]	
CCN(CC(=O)Nc1c(F)cccc1F)C(=O)CSc1nc2ccccc2o1		inconclusive
O=C(O)c1cc2n(n1)C(C(F)(F)F)CC(c1ccccc1)N2 (configuration not stated)		inconclusive: -7.17%
Cc1cccc(NC(=O)CCN2CCCCC2)c1		inactive: 10.7%
O=[N+]([O-])c1ccc(S(=O)(=O)Nc2ccc(-c3ccc(N4CCOCC4)nn3)cc2)cc1		inconclusive: 35.2%
Cn1cnc([N+](=O)[O-])c1NCc1ccccc1		inconclusive: -19.4%
COc1cccc(CNc2nc3nc(C)cc(C)n3n2)c1	inconclusive: 18.4 µM [activator, partial curve]	
c1ccc(CCCN2CCN(c3ccccn3)CC2)cc1		inconclusive: 7.25%
COc1cccc(NC(=O)CCN2C(=O)c3cccc([N+](=O)[O-])c3C2=O)c1		inconclusive: 10.4%
O=C(NCCCN1CCOCC1)c1cc(-c2ccccc2F)no1	inconclusive: 6.51 µM [activator, single point]	
CC(=O)Nc1nnc(Cc2ccccc2)s1		inconclusive: -48.9%
CCc1ccc(NC(=O)C2=CC(c3ccc(OC)cc3)=NS(=O)(=O)N2C)cc1	active: 10.3 µM	
COc1ccc(NC(=O)CSc2nnnn2C2CCCC2)c(OC)c1		inconclusive: -7.91%
CC(C)C[C@H](NC(=O)C1CCN(S(=O)(=O)c2ccccc2)CC1)C(=O)NCc1cccnc1		inconclusive: -42.3%
Cc1cc(C(=O)NC2CCCN(Cc3ccccc3F)C2)n[nH]1 (configuration not stated)		inconclusive: -2.29%
FC(F)Oc1ccc(C2N=C(c3ccccc3)NO2)cc1 (configuration not stated)		inconclusive: -0.288%
CCOc1cccc(N2C(=O)CC(NCc3ccc(S(N)(=O)=O)cc3)C2=O)c1 (configuration not stated)		inconclusive: -12.1%
O=C(Cc1cccc2ccccc12)Nc1cc(C(=O)O)cc(C(=O)O)c1	inconclusive: 29.1 µM [activator, single point]	
NS(=O)(=O)c1ccc(CNS(=O)(=O)c2cccc3nonc23)cc1		inconclusive: -32.6%
CCCNC(=O)c1cnc(Sc2ncc(C(F)(F)F)cc2Cl)n1C	inconclusive: 6.51 µM [falling, single point]	
COc1ccc(OC)c(-c2csc(NC(=O)Cc3cc(OC)c(OC)c(OC)c3)n2)c1		inconclusive: -56.4%
CCOC(=O)CSc1nc2ccccc2n1CC(=O)N(C(C)C)C(C)C	inconclusive: 23.1 µM [falling, single point]	

Record cards, from the list above:
`COc1cccc(NC(=O)CCN2C(=O)c3cccc([N+](=O)[O-])c3C2=O)c1` is entered as lipid storage change, negative = inhibition: inconclusive: 10.4%
`CC(=O)Nc1nnc(Cc2ccccc2)s1` is entered as lipid storage change, negative = inhibition: inconclusive: -48.9%
